Laboratory results published in PMC10042831.
Results are given in words; binding and its absence hold for the method and conditions named. Binding seen in cells or lysates may run through a third protein. Some binding calls cover weakened binding; strength is not graded here.

Protein sequences, listed by entry. Tags and fused reporters are not part of them. Lines headed by an entry give the natural chain unless they say otherwise; changes in a name come on top.
UniProt Q5S007: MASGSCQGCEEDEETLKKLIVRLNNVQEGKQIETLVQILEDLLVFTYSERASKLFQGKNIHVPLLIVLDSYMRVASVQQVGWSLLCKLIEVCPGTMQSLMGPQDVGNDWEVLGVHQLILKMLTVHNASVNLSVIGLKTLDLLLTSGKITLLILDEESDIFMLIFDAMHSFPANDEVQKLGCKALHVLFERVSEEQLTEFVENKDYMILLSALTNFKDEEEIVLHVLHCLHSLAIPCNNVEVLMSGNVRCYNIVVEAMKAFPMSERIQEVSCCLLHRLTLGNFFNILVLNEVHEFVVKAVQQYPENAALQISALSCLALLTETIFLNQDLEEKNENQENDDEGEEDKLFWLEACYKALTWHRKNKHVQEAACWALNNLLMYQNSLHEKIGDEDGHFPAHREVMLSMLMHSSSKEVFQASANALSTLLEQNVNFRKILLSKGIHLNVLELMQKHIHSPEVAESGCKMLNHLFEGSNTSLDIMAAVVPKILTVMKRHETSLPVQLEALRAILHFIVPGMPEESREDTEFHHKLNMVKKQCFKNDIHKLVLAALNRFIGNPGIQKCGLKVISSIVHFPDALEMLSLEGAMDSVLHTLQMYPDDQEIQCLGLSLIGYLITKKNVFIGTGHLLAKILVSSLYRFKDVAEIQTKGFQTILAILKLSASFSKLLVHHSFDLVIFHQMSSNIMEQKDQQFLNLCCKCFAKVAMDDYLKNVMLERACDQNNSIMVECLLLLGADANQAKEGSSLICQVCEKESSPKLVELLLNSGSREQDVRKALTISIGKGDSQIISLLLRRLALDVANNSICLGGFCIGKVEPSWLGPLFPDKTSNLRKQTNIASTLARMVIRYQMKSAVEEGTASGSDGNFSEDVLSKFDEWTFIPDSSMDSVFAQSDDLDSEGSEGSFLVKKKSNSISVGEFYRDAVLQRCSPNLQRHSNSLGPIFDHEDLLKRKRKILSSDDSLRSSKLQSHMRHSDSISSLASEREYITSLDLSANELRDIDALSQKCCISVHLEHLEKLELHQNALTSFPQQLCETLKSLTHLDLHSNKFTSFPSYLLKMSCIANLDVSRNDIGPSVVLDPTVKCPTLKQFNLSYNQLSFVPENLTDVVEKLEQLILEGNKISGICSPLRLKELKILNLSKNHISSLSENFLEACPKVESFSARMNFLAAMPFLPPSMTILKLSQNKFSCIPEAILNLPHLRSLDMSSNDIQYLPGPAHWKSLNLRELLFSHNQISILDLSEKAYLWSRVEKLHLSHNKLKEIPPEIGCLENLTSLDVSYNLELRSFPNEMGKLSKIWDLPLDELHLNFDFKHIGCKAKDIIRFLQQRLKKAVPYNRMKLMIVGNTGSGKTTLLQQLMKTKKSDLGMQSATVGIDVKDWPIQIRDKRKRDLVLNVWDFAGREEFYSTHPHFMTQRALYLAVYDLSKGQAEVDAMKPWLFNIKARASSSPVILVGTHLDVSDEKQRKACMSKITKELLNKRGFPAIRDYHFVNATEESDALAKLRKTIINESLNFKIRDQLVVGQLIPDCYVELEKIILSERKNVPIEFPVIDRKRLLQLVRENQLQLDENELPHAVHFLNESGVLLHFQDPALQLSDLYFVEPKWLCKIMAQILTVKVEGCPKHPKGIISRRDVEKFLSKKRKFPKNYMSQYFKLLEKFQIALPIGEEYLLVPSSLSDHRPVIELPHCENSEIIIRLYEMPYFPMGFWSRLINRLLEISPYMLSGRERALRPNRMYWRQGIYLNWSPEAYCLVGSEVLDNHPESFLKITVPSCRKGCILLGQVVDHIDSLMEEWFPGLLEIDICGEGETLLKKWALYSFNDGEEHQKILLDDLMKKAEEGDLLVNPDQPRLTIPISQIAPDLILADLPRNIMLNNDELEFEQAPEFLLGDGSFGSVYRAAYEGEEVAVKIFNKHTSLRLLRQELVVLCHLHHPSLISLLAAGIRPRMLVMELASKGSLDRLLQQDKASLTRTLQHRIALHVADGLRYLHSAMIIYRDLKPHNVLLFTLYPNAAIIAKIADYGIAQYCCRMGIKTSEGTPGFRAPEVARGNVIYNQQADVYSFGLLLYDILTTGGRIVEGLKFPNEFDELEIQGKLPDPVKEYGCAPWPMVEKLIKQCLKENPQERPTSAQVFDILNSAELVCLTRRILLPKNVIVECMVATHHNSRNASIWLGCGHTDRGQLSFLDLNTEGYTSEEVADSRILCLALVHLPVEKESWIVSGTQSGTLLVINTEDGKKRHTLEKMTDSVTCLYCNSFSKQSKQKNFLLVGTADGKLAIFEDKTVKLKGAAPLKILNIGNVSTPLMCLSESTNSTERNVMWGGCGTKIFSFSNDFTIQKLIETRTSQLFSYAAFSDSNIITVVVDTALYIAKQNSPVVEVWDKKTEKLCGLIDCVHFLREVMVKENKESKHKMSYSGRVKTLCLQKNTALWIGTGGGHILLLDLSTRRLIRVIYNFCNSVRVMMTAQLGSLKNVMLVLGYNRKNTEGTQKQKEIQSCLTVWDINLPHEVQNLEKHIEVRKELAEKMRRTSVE
UniProt Q5S006: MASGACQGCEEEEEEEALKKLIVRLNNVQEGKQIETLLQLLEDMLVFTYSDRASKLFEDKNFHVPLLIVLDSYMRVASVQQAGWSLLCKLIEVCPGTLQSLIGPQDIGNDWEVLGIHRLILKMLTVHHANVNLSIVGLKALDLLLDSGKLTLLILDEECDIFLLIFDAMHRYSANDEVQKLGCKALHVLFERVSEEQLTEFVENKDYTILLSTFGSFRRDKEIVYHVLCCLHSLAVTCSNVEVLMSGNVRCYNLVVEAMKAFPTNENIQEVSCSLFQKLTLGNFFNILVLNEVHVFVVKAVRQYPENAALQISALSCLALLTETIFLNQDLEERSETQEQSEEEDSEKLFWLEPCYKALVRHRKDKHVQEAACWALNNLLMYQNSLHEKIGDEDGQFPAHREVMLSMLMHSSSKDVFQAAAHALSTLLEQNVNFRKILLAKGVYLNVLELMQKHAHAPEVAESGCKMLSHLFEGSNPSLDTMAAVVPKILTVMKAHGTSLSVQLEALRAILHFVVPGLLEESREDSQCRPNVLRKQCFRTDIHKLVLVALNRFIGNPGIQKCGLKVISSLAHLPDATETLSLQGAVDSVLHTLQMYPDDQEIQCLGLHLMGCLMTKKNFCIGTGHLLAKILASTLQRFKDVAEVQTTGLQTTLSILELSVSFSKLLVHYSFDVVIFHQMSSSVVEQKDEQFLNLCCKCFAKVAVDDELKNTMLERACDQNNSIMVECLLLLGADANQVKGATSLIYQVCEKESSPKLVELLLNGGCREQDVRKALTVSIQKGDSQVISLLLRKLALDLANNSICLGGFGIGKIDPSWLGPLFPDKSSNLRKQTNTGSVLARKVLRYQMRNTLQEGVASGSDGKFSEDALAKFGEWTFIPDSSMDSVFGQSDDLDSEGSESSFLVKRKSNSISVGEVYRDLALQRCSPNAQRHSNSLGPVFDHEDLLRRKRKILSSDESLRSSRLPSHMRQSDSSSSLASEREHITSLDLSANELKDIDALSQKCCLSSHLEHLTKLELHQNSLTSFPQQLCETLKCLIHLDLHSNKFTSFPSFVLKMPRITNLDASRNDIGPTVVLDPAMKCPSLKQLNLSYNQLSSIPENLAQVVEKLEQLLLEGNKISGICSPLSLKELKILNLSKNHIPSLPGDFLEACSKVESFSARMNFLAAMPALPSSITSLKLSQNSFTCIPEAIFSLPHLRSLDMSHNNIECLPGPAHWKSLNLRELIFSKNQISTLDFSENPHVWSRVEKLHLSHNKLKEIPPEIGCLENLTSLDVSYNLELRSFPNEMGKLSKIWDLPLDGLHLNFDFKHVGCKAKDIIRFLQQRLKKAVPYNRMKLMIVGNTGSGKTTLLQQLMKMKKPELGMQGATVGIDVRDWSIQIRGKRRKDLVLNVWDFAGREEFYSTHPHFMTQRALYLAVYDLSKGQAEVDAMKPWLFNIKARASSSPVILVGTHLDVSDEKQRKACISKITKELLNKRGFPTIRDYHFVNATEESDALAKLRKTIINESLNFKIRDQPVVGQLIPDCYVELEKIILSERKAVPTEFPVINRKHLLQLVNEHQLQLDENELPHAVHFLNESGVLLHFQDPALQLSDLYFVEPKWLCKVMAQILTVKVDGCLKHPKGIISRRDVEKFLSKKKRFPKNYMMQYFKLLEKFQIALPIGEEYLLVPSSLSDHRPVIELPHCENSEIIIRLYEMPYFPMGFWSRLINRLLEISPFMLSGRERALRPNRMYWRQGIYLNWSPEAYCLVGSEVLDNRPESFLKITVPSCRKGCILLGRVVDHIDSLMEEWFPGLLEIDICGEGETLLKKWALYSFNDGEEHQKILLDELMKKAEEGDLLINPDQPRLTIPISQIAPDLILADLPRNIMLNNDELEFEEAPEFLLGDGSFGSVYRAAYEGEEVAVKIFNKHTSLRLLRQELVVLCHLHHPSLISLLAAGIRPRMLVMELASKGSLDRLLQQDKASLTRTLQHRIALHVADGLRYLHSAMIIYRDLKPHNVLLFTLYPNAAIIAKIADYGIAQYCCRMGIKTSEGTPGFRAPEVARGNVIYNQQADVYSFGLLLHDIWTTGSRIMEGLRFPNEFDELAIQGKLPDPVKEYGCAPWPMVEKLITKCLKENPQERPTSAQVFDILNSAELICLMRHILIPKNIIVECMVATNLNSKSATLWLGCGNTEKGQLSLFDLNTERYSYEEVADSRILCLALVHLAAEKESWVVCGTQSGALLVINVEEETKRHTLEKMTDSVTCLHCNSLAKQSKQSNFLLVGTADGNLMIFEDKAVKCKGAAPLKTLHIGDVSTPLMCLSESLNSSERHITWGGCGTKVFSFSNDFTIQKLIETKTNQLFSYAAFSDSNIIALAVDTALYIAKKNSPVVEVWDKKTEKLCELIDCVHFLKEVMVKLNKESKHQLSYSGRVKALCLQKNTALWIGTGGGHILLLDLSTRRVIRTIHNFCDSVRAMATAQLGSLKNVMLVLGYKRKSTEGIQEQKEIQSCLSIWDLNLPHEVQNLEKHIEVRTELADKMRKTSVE

Tests used:
[1] = target: T1, Rit2 (small GTPase Rit2), human, overexpressed in SH-SY5Y cell lines (human) (UniProt Q99578); assay: proximity ligation; Duolink PLA for Rit2 and total LRRK2 in fixed SH-SY5Y cell lines stably overexpressing WT- or G2019S-LRRK2
T1 sequence: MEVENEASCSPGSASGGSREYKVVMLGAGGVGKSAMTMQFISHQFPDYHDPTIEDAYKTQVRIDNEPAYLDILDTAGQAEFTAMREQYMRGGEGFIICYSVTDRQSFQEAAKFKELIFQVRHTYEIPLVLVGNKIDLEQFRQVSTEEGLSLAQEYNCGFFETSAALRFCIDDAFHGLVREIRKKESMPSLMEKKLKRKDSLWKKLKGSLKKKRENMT

[2] = target: T2, Rit2, human, transiently expressed in HEK293T cells (human) (UniProt Q99578); assay: proximity ligation; Duolink PLA for Rit2 and total LRRK2 in fixed HEK293T cells with transient, stoichiometrically comparable expression of Rit2 and LRRK2 (WT or G2019S)
T2 sequence: T1 sequence

[3] = target: T3, Rit2, endogenous, mouse brain (mouse (endogenous in mouse brain)) (UniProt P70425); assay: co-IP; mouse brain lysate (midbrain and striatum pooled); anti-Rit2 antibody (Origene TA501701) or same species IgG as control, overnight at 4 °C, protein A/G magnetic beads; 50 mM Tris-HCl pH 7.6, 150 mM NaCl, 1% IGEPAL CA-630, 0.1% SDS; blot for LRRK2
T3 sequence: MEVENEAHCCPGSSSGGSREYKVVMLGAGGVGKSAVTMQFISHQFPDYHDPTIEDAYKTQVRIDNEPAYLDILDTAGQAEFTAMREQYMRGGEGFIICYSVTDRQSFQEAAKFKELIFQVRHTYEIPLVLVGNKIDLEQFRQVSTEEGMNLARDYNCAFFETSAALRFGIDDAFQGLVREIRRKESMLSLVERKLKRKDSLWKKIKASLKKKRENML

For “WT-LRRK2 (leucine-rich repeat kinase 2), stably overexpressed in SH-SY5Y cells (from UniProt Q5S007 1-2527)”, the binding [1] was “binds”.

For “2xMyc-LRRK2 WT, transiently expressed in HEK293T cells (from UniProt Q5S007 1-2527)”, the binding [2] was “binds”.

With “2xMyc-LRRK2 G2019S, transiently expressed in HEK293T cells (from UniProt Q5S007 1-2527)” the binding [2] was “binds”.

For “LRRK2, endogenous, mouse brain (from UniProt Q5S006 1-2527)”, the binding [3] was “binds”.
